This note sets out measurements from paper PMC11651612.

In test [1] the target is T1, Cdc3-mCherry (C. neoformans) (UniProt J9VUF2).
T1 sequence: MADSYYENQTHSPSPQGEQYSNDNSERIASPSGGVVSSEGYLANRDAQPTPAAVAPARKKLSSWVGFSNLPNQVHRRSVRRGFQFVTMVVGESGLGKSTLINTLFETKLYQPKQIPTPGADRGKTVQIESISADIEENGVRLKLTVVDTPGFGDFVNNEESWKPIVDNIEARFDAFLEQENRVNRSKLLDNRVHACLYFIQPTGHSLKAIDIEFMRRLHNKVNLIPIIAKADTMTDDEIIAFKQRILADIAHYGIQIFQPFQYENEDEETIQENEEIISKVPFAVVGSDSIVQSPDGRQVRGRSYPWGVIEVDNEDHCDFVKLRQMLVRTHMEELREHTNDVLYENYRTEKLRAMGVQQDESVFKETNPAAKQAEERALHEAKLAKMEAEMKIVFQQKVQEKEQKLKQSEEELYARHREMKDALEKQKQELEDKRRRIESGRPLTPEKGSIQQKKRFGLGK
Put plainly: affinity purification with mass spectrom.

For test [2], the target named is T2, Cdc10-mCherry (C. neoformans) (UniProt J9VMT9).
T2 sequence: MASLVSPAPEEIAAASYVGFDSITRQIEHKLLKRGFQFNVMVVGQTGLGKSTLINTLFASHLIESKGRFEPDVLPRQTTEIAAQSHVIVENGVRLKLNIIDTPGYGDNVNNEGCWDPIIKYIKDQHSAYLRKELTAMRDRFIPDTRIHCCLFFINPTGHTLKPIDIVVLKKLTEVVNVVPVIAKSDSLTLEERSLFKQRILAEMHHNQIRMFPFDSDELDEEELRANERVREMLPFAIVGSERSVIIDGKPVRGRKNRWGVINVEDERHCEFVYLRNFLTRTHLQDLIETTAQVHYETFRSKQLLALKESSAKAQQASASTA
Nature of the test: affinity purification with mass spectrom.

These are yes or no findings as the source states them, for the method shown. Binding seen in cells or lysates may run through a third protein. These calls come from enrichment with a bait or labelling near it, and not all partners need be listed. Sequences can lack the tags named with a protein.

B1: ATP-dependent helicase (protein, UniProt J9VUT0 1-1092)
chain: MEFSNFEGASQYGPDIDDNTSLYSSIPPSVVTAPTISGDIASQLGDLNLGETTSGHAAAGQGYIDDFDEEIERNSFGEGVEHACSYCGIHNPQCVVKCLHCNKWFCNSRGNTSASHIVNHLVKAKHKEVILHKESALGDTIPECYNCGSKNVFMLGFIPAKSDTVVVLLCRQPCAALTSSRDINWDTSQWSAIIDDRQFLSWLVKVPSEAEQLRARQISLAQISKLEELWRENPNAKLEDAEAQSGEEEMQPILLKYEDAYQYQNILGPLVKVEADYDKRMKESQTENDITIRWDMGLNQKRLAWFCMPKLESGEVRLAVGDELKLKFAGTTSSVGIKGLQAFNKAGWGSSGDAVWEGVGSVVKIPNNASDEICLELRRNDGVPFDCTHGFSVDFIWKSTSFDRMQAAMKTFAIDEKSVSGYIYHKLLGHEVEPQVLRTQMPKRFAAPNLPELNHSQMSAVKAVLQKPLSLIQGPPGTGKTVTSASIVYHLAKMNPGQVLVCAPSNVAVDHLCEKIHQTGLKVVRLAAKSREALDSSVDFLSLHSQVANADTHHELQKLIQLRNDQGELSQSDERKYKTLVKACEKDILNAADVICTTCVGAGDPRLAKFKFRTVLIDEATQSAEPECMIPLVMGCKQAVLVGDHQQLGPVIMNKKAARAGLSQSLFERLVILGNHPIRLQVQYRMHPCLSEFSSNLFYEGTLQNGVTAPERLRKNVDFPWPVADTPMFFHQNLGTEEISSSGTSFLNRTEASNVEKMVTKFFKSGVLPNQIGVITPYEGQRSYIASYMQLHGSLKKDLYKEVEVASVDAFQGREKDYIILSCVRSNEHQGIGFLNDPRRLNVALTRAKYGVVILGNPKVLSKHPLWLYLLSHYKEKGCFVEGPLSNLQPSMVQFSRPKKSLAAAMDPFKRRETSAVEFLSKNIGHGQGGQSAAASRFDPAYYRTHNPLSFIPPDAQSVVSQAMTSSAFPLFGSVGGVSGGGGGVGGVGGHGGKNKTYTGYASSVVSQQPMDGGTAGAVLPPRAGQSQFDRFANVVGAGGGMGGVGVGSMGKGRRLSIGSEAASASMYAYGYKAGEDDTQSIAPSQAGMTEF
Take B1: the binding entry in test [1] and in test [2] was “binds” each time.

B2: Alpha-1,4 glucan phosphorylase (protein, UniProt J9VRE2 1-927)
chain: MAELTKENLDKVPASPGSSHSSRTPSLHQPEMSRRSSLSAGHPHSFKQVDPTQIGVPIVTPRKERPGHQRSLTGSYFPSQKGGIVDMPGEWPVGDEKTWREGKKAMTIDQENPQDVANTIVRHVNTSLGRQVYNVDEVAAYQATALSVRDQLLDRWNQTAAYHTAKAPKRVYYLSIEWLVGRSLDNAVLNLGMRNVYEEANRKLGFNFEDLLNEERDAGLGNGGLGRLAACYIDSMATLNLPGWGYGLRYNYGIFKQLISNSGEQLEAPDPWLDRENPWEIARLDVTYPIRFYGRVDPIPNTDRAVWSGGMECLAVAYDTPIPGYGTKNCANIRLWSAKPVQGFDLNSFNAGNYEASVAASSEVENITRVLYPNDNMYAGKKLRVMQQYLWVSASLQDMLRRFTKLDLPWTELPDYVCIQMNDTHPTLAIPELMRILIDEEKLDYNTAWKITQKVFAYTNHTVLPEALERWQLDLFEELLPRHLQIIYRINFDFLGLVAKRWPGDMDRIRRMSIIEEGSPKYVRMAYLAIVSSFKINGVAELHSQLLQATIFRDFVEFKGRDAFTNVTNGITPRRWLLQCNPELAALITHTLGSDDWATNLKLLKNLLPMADNADFRKAFTNIKMDNKCRLASLIEAELGITLNVNSVFMTQIKRLHEYKRQTLNLFGVIYRYLRIKQASPEERKKITKHTAIFAGKAAPGYYVAKLVIRLINNVARVVNDDPDVGDLLKVVFIPDYSVSIAEVLVPASDVSVQISTAGTEASGTSNMKLALNGALLLGTVDGANVEIAEDAGEDQSFLFGHLAEQVDEVRYANTYQPTPLEQRSPELAQTFKAIEAGTFGDGAIYAPLLKTVYEHDYYLVSNDFGSYLSAEKLMDECYDSDKTEWTRKSIITAFNMGDFSSDRSVQDYADGIWSVEPCEVPEGFSI
On to B2, for which the binding entry in test [1] and in test [2] was “binds” throughout.
